Values of other authors, collected in patent publication US20040198829A1, “Prostanoids augment ocular drug penetration” (priority 2001, published 2004).
Some of these results come from one statement about several compounds together.

Conditions: in vivo; cited from earlier work

NCC[C@H](O)C(=O)N[C@@H]1C[C@H](N)[C@@H](O[C@H]2O[C@H](CN)[C@@H](O)[C@H](O)[C@H]2O)[C@H](O)[C@H]1O[C@H]1O[C@H](CO)[C@@H](O)[C@H](N)[C@H]1O [amikacin]
penetration from bloodstream to the cerebrospinal fluid, and into the eye: less than 25 % of serum concentration
